Substitutions are numbered along the chain they refer to. Numbers in names are those of the source. No constants are given. Whether binding was seen depends on the method and setting. Some results given as binding are weak or reduced against the parent protein; the word gives no strength. Values belong to the binder of their own block, whether it stands above or below them.
Experiments:
SYCE3 W41A (human) = SYCE3 W41A (human) (UniProt A1L190); assay: SEC-MALS; samples at 0.5–20 mg/ml in 20 mM Tris pH 8.0, 150 mM KCl, 2 mM DTT; Superdex 200 Increase 10/300 GL; concentration series and enriched species; self-association: dimer and higher oligomers of dimers; both purified
[1] = molecular target: Mouse SYCE3 (crystal structure, rebuilt and re-refined) (mouse) (UniProt B5KM66); assay: crystal structure; mouse SYCE3, rebuilt and re-refined against the deposited data of PDB 4R3Q to 1.90 Å; deposited as 6H86; both purified
SYCE3 Y44A (human) = SYCE3 Y44A (human) (UniProt A1L190); assay: SEC-MALS; samples at 0.5–20 mg/ml in 20 mM Tris pH 8.0, 150 mM KCl, 2 mM DTT; Superdex 200 Increase 10/300 GL; concentration series and enriched species; self-association: dimer and higher oligomers of dimers; both purified

Sequences of proteins named here, by UniProt entry; tags and fusion partners are left off.
UniProt B5KM66: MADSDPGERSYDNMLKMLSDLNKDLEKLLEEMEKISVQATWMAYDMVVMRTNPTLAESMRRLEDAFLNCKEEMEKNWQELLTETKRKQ

- binding (SYCE3 W41A (human)): binds
B1: SYCE3 W41A (protein, UniProt A1L190 1-88)
chain: MDDADPEERNYDNMLKMLSDLNKDLEKLLEEMEKISVQATAMAYDMVVMRTNPTLAESMRRLEDAFVNCKEEMEKNWQELLHETKQRL

- binding [1]: binds
B2: Mouse SYCE3 (crystal structure, rebuilt and re-refined) (protein, UniProt B5KM66 1-88)
chain: B1 chain with D2A, A4S, E7G, N10S, A41W, V67L, H82T, Q86R, R87K, L88Q

- binding (SYCE3 Y44A (human)): binds
B3: SYCE3 Y44A (protein, UniProt A1L190 1-88)
chain: B1 chain with A41W, Y44A

From paper PMC6556580 (The Journal of Biological Chemistry, 2019)
